The values that follow come from article PMC3826128 (Marine Drugs, 2013).

The subject of the data set is L. infantum promastigotes. The experiment in a line: Toxicity towards L. infantum promastigotes. Conditions: macrophage IC50 / L. infantum EC50. Type of data set: cell-based, Leishmania infantum. The text has this:
The experimental procedures employed to assess the toxicity of acids 1 and 2 towards L. infantum and L. donovani are the same as the ones previously described. CPT was used as the control drug.

Take `CCCCCCCCCC/C=C\CC/C=C\CCC(OC)C(=O)O` (racemic) [compound 1, (5Z,9Z)-(±)-2-methoxy-5,9-eicosadienoic acid]: the “Therapeutic Index (IC50/EC50)” value is given as 0.4.

As to `CCCCCCCCCCC#CCCC#CCCC(OC)C(=O)O` (racemic) [compound 2, (±)-2-methoxy-5,9-eicosadiynoic acid], the “Therapeutic Index (IC50/EC50)” value is recorded as 0.4.
